Measurements reported in article PMC5605875.
No constants are given. Whether binding was seen depends on the method and setting. In cells and extracts the contact can be indirect. Some results given as binding are weak or reduced against the parent protein; the word gives no strength.

By UniProt entry, the sequences of proteins in these tests, tags left out. Residues count along the entry.
UniProt Q6TMG5: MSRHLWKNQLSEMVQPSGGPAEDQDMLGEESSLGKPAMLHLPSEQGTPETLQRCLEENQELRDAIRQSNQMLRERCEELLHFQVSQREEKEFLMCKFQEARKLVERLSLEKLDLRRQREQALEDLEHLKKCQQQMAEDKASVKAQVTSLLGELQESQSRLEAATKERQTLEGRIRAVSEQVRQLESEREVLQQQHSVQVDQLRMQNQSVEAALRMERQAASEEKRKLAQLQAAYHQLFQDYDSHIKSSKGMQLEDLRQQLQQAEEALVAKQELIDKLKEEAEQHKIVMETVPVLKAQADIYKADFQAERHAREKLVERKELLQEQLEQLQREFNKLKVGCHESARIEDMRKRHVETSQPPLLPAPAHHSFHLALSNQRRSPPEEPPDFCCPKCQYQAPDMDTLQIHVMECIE
UniProt Q5I0H3, residues 1-97: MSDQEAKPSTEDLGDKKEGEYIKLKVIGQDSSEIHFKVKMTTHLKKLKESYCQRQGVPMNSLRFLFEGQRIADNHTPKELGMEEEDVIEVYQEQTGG

Target: IκB kinase γ (IKKγ) (rat (endogenous in HBZY-1 GMCs)) (UniProt Q6TMG5)
Assay: co-IP; lysates of rat GMCs (5.6 mmol/L glucose, 30 mmol/L glucose or mannitol for 24 h; with or without PIASy siRNA) precipitated with anti-IKKγ antibody for 12 h at 4°C and protein A/G Sepharose; blot with anti-SUMO1 or anti-SUMO2/3 antibody; normal rabbit IgG as negative control

Question: How did the binding turn out when SUMO1 (from UniProt Q5I0H3 1-97) was run?
Answer: binds
